Binding data for two substances are collected here from publication PMC5376188.

Protein sequences, listed by entry. Tags and fused reporters are not part of them.
UniProt Q00944: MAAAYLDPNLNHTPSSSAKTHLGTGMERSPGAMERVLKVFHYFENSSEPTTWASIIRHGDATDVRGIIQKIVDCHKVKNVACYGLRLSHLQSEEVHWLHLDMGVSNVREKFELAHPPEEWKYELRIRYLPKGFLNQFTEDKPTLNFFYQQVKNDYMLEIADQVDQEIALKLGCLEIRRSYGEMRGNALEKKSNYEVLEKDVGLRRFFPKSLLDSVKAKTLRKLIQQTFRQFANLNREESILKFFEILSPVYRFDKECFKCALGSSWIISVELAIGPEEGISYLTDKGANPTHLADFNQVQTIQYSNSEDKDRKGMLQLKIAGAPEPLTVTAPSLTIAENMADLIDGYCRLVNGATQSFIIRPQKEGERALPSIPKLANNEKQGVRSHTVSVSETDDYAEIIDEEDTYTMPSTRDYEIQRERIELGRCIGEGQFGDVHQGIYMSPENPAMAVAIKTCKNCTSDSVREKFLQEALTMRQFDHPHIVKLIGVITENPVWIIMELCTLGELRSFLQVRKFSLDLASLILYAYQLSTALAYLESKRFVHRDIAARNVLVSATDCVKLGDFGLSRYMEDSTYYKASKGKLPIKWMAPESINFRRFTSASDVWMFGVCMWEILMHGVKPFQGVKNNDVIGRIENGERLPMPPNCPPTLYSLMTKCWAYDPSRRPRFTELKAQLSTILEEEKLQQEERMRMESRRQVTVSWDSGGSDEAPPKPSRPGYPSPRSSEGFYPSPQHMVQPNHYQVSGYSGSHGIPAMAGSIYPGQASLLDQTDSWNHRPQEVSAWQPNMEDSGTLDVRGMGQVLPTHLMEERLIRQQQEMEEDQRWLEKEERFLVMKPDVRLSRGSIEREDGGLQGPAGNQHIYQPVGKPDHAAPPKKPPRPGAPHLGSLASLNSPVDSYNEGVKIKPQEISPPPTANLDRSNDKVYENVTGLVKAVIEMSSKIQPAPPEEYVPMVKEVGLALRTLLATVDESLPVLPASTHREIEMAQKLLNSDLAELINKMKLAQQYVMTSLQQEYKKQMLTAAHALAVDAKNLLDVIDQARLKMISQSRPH
UniProt O08788: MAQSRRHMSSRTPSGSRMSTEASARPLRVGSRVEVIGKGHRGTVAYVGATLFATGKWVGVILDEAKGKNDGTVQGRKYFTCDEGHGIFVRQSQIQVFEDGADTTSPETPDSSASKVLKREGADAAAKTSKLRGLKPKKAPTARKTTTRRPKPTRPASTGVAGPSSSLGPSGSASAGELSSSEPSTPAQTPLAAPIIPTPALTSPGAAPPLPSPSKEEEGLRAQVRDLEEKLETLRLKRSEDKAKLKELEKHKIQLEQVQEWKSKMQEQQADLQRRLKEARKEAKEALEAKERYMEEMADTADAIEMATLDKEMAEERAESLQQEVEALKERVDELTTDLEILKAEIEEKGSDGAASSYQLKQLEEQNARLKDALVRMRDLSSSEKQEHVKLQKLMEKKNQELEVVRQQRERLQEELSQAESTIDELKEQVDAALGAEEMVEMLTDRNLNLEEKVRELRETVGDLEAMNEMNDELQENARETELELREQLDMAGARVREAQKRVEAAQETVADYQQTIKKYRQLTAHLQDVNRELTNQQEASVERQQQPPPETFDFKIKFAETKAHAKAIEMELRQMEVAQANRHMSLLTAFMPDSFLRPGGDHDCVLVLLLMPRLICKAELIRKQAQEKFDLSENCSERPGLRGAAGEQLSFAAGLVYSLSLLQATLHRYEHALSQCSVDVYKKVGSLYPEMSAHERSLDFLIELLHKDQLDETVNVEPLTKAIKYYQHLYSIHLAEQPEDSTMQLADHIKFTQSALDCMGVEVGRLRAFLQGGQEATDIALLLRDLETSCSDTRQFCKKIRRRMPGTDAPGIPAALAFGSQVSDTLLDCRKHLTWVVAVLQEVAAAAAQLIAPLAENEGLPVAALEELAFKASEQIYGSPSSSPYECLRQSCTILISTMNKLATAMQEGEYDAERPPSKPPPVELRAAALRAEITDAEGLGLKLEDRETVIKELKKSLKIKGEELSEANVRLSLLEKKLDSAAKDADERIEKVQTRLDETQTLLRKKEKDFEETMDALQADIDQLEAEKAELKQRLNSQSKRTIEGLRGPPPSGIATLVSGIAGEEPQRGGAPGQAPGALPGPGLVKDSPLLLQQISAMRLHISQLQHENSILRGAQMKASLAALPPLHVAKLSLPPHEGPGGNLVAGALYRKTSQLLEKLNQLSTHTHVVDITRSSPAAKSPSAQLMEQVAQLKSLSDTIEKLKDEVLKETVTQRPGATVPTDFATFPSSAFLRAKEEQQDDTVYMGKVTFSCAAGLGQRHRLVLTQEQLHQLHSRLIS
UniProt Q9CQW9: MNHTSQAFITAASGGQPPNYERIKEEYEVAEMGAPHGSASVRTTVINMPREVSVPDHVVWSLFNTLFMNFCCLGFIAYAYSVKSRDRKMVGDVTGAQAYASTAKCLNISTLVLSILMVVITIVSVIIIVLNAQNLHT

Results are given in words; binding and its absence hold for the method and conditions named. In cells and extracts the contact can be indirect. Here binding means that the protein was enriched with, or labelled near, the bait; the list need not be complete.

Assay [1] addresses T1, Ambra1 (activating molecule in Beclin1-regulated autophagy) (mouse (endogenous in SCC cells and MEFs)) (UniProt A2AH22).
T1 sequence: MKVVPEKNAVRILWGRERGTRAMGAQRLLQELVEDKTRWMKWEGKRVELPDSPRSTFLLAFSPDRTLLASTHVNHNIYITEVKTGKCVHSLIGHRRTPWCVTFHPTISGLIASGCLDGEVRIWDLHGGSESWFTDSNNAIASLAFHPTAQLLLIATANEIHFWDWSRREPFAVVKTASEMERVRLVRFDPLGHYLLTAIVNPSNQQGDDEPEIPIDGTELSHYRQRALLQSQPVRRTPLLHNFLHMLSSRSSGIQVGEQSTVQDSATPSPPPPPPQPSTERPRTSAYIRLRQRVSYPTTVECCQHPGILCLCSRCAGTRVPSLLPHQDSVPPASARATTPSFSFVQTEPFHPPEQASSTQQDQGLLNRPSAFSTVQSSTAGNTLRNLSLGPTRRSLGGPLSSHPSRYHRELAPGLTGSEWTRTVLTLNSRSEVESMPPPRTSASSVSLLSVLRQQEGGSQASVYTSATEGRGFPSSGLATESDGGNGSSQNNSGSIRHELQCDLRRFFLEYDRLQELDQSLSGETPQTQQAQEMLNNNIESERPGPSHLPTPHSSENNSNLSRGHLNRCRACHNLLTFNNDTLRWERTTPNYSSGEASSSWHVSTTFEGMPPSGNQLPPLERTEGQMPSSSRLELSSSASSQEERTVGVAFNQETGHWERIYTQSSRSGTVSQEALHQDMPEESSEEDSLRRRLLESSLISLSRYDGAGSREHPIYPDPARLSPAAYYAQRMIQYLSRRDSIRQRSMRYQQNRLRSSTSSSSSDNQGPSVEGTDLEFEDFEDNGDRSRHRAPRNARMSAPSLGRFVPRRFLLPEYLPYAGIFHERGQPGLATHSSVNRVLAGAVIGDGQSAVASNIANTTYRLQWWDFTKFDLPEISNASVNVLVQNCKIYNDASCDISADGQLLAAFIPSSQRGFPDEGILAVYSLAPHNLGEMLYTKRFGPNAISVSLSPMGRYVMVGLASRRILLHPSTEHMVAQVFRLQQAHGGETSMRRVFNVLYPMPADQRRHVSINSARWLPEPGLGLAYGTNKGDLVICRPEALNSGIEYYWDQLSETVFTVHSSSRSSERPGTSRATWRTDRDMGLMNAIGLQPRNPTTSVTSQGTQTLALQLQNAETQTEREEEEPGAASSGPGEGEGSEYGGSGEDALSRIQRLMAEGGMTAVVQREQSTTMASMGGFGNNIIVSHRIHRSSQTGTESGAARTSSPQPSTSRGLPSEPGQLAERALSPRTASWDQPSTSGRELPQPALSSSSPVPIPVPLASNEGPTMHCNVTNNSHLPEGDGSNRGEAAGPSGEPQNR
As to the kind of experiment: affinity purification with mass spectrometry; Ambra1, pSrc Y416, FAK and IgG control IPs from 2 mg RIPA lysates of SCC FAK-WT and FAK -/- cells in triplicate; on-bead digestion; quantitative label-free LC-MS/MS.

Assay [2] deals with focal adhesion kinase (FAK), wild type, in SCC FAK-WT cells (UniProt Q00944). The assay is described as above.

As for “Dynactin 1 (Dctn1; also known as p150Glued) (from UniProt O08788 1-1281)”, the binding result in assay [1] is listed as “binds”. On to “interferon-induced transmembrane protein 3 (IFITM3) (from UniProt Q9CQW9 1-137)”, for which the binding result in assay [1] and in assay [2] was “binds” in each case.
